Data reported in patent publication US20070031328A1, “Radiolabeled-pegylation of ligands for use as imaging agents” (priority 2005, published 2007).
At least one structure is not confirmed: it was looked up by name or label, or the drawing left a doubt.

Sequences of proteins named here, by UniProt entry; tags and fusion partners are left off. Residues count along the entry.
UniProt P05067, 672-713 limits assumed: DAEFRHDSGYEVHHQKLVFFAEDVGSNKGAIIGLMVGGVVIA

Biological target: T1, Ab aggregates of AD brain homogenates (Homo sapiens, UniProt P05067)
T1 construct: to Ab aggregates of AD brain homogenates; from tissue; host or cells: post-mortem grey matter of AD patients, homogenised in PBS
Test: Inhibition of [125I]IMPY binding to Aβ aggregates of AD brain homogenates
Set-up: species or system human (AD patients)
Conditions: Table 1
Procedure: Postmortem brain tissues were obtained from AD patients at autopsy, and neuropathological diagnosis was confirmed by current criteria (NIA-Reagan Institute Consensus Group, 1997). Homogenates were then prepared from dissected gray matters from AD patients in phosphate buffered saline (PBS, pH 7.4) at the concentration of approximately 100 mg wet tissue/ml (motor-driven glass homogenizer with setting of 6 for 30 sec).
(§1) Binding assays were carried out in 12×75 mm borosilicate glass tubes. […] The mixture was incubated at 37° C. for 2 hr and the bound and the free radioactivity were separated by vacuum filtration through Whatman GF/B filters using a Brandel M-24R cell harvester followed by 2×3 ml washes of PBS at room temperature. Filters containing the bound ^125I ligand were assayed for radioactivity content in a gamma counter (Packard 5000) with 70% counting efficiency.
as §1, with “efficiency. […]” for “efficiency.”

In the case of CN(C)c1ccc(C=Cc2nc3ccc(OCCOCCOCCF)cc3o2)cc1 [Compound 8b, 6-(2-(2-(2-fluoroethoxy)-ethoxy)-ethoxy)-[2-(4-dimethylaminophenyl)-vinyl]-benzooxazol], the “in vitro binding affinities / in vitro results (in words)” value is reported as “very promising”.
